Results are given in words; binding and its absence hold for the method and conditions named. Some entries that bind do so weakly or less than the wild type.
Molecular target: N-WASP BR-GBD_(142-273) (Rattus norvegicus) (UniProt O08816)
Test: fluorescence stopped-flow; association: 1 µM mGppNHp-bound Cdc42 mixed with 1 µM N-WASP BR-GBD; 30 mM Tris-HCl, 10 mM K2HPO4/KH2PO4 pH 8.5, 5 mM MgCl2, 3 mM DTT, 25 °C; both purified

Chains of the proteins cited; added tags and fusions are not shown. Residues count along the entry.
UniProt O08816, residues 142-273: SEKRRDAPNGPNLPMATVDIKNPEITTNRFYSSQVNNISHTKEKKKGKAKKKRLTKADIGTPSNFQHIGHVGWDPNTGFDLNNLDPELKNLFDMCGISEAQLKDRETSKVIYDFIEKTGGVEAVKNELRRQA
UniProt P60953: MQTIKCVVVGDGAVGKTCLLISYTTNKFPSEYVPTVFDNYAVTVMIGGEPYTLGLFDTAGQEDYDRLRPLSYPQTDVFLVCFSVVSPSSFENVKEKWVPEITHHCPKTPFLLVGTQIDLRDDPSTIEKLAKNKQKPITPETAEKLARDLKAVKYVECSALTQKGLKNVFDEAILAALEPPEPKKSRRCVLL

- binding: binds
Substance: Cdc42 bound to a non-hydrolysable GTP analogue (Cdc42_(GppNHp)) (from UniProt P60953 1-191)

Source: article PMC11344771
